# Source: patent publication US6551793B1, “Carotenoid-associated proteins useful for high carotenoid accumulation and production in plants and other organisms” (Yissum Research Development Company of the Hebrew …, priority 1996, dated 2003)
# Tested on: cucumber corollas
# Test: Total protein content and fresh weight of in vitro cultured corollas
# Format: cell-based, Cucumis sativus
compound,measurement,setting,value
"C=C1C[C@]23C[C@@]1(O)CC[C@H]2[C@@]12C=C[C@H](O)[C@@](C)(C(=O)O1)[C@H]2[C@@H]3C(=O)O [GA3, Gibberellin A3]",Difference in fresh weight or total protein level between treated and control corollas,"GA3, up to 24 hours in culture",No difference
same,Change in total protein content of corollas,"GA3, within 6 hours of treatment",No change
C=C [ethylene],"Total protein content of treated corollas, lower than control untreated corollas","ethylene, 72 hours",50%
